Experimental data as given in the supplement of paper PMC6445147.
Single values of this data set are uncertain.

B1: human tRNA-Pro; a variant is named by its letters at N, in order (parent)
chain: GGCTCGTTGGTCTAGNGGTATGATTCTCGCTTAGGGTGCGAGAGGTCCCGGGTTCNNATCCCGGACGAGCCC

What was measured:
[1] = variants of: B1; assay: tRNA Pol-III promoter activity, log2 (circRNA frequency / plasmid DNA frequency) (log2 ratio); higher = stronger promoter activity; details: HEK293T; construct: no Pol-II promoter ((-)CMV library)
[2] = variants of: B1; assay: tRNA 3' processing efficiency (processed reads / all reads, maximum-likelihood estimate) (fraction); higher = more efficient 3' processing; details: HEK293T; construct: no Pol-II promoter ((-)CMV library)
[3] = variants of: B1; assay: tRNA 5' processing efficiency (processed reads / all reads, maximum-likelihood estimate) (fraction); higher = more efficient 5' processing; details: HEK293T; construct: CMV Pol-II promoter ((+)CMV library, decapped)

Variant	tRNA Pol-III promoter activity (log2) [1]	tRNA 3' processing efficiency [2]	tRNA 5' processing efficiency [3]
GGCTCGTTGGTCTAGGCGTTTGATTCTCGCTTAGGGTGCGAGAGGTCCCGGGTTCTATTCCCGGACGAGCCC [GTA G17C A20T A58T]	4.36	0.25	
GGCTCGTTGGTCTCGATGTATGATTCTCGCTTAGGGTGCGAGAGGTCCCGGGTTCAGATCCCGGACGAGCCC [AAG A14C G17T]	3.93	0.6	
GGCTCGTTGGTCTAGAGGTATGATTCTCGCTTAGGGTGCGAGAGGTCCCGGGTTGAAATCCCGGACGAGCCC [AAA C55G]	0.163	0.31	0.17
GGCTCGTCGGTCTCGGGGTATGATTCTCGCTTAGGGTGCGAGAGGTCCCGGGTTCAATTCCCGGACGAGCCC [GAA T8C A14C A58T]	3.42	0.25	
GGCTCGTTGGTCTAGGGGTTTGATTCTCGCTTAGGGTGCGAGAGGTCCCGGGTTCAGATCCCGGACGAGCCC [GAG A20T]	1.01	0.38	0.11
GGCTCGTTGGTCTAGGGGTATGATTCTCGCTTAGGGTGCGAGAGGTCCCGGGTTCAGGGCCCGGACGAGCCC [GAG A58G T59G]	3.97	0.44	
GGCTCGTTGGTCTTGGGGAATGATTCTCGCTTAGGGTGCGAGAGGTCCCGGGTTCTAATCCCGGACGAGCCC [GTA A14T T19A]	3.94	0.64	
GGCTCGTTAGTCTAGAGGTATGATTCTCGCTTAGGGTGCGAGAGGTCCCGGGTTCATATCCCGGACGAGCCC [AAT G9A]	6.64	0.46	
GGCTCGTAGGTCTAGGGGTATGATTCTCGCTTAGGGTGCGAGAGGTCCCGGGTTCAAAACCCGGACGAGCCC [GAA T8A T59A]	0.0926	0.35	
GGCTCGTTGGTCTAGGGGTTTGATTCTCGCTTAGGGTGCGAGAGGTCCCGGGGTCGAATCCCGGACGAGCCC [GGA A20T T53G]	4.49	0.5	
GGCTCGTGGGTCTATGGGTGTGATTCTCGCTTAGGGTGCGAGAGGTCCCGGGTTCAAATCCCGGACGAGCCC [GAA T8G G15T A20G]	2.19	0.6	
GGCTCGTTGGTCTACGGGAATGATTCTCGCTTAGGGTGCGAGAGGTCCCGGGTACAAATCCCGGACGAGCCC [GAA G15C T19A T54A]	2.94	0.33	
GGCTCGTTGGTCTAGGGGTCTGATTCTCGCTTAAGGTGCGAGAGGTCCCGGGTTCAAGTCCCGGACGAGCCC [GAA A20C G34A A58G]	3.21	0.33	
GGCTCGTTGGTCTAGGGGTATGATTCTCGCTTAGGGTGCGAGAGGTCCCGGGTTCAACCCCCGGACGAGCCC [GAA A58C T59C]	3.54	0.2	
GGCTCGTTGGTCTAGGGGTTTGATTCTCGCTTAGGGTGCGAGAGGTCCCGGGTTCAAATCCCGAACGAGCCC [GAA A20T G64A]	5.53	0.33	
GGCTCGTGGGTCTAGGGATATGATTCTCGCTTAGGGTGCGAGAGGTCCCGGGTTCAGATCCCGGACGAGCCC [GAG T8G G18A]	4.2	0.22	
GGCTCGTTGGTCTAGGGGTATGATTCTCGCTTAGGGTGCGAGAGGTCCCGGGATCGAACCCCGGACGAGCCC [GGA T53A T59C]	3.77	0.26	
GGCTCGTTGGTCTCGGGGTATGATTCTCGCTTAGGGTGCGAGAGGTCCCGGGATCGAATCCCGGACGAGCCC [GGA A14C T53A]	3.53	0.25	

For reference, some entries already given.
Variant	tRNA Pol-III promoter activity (log2) [1]	tRNA 3' processing efficiency [2]	tRNA 5' processing efficiency [3]
GGCTCGTTGGTCTAGAGGTATGATTCTCGCTTAGGGTGCGAGAGGTCCCGGGTTGAAATCCCGGACGAGCCC [AAA C55G]	0.163	0.31	0.17
GGCTCGTCGGTCTCGGGGTATGATTCTCGCTTAGGGTGCGAGAGGTCCCGGGTTCAATTCCCGGACGAGCCC [GAA T8C A14C A58T]	3.42	0.25	

(cont.)

Variant	tRNA Pol-III promoter activity (log2) [1]	tRNA 3' processing efficiency [2]	tRNA 5' processing efficiency [3]
GGCTCGTCGGTCTAGGGGTATGATTCTCGCTTAGGGTGCGAGAGGTCCCGGGTTCTAGTCCCGGACGAGCCC [GTA T8C A58G]	3.77	0.27	
GGCTCGTTGGTCTAGGGGTTTGATTCTCGCTTAGGGTGCGAGAGGTCCCGGGATCAAATCCCGGACGAGCCC [GAA A20T T53A]	2.97	0.37	
GGCTCGTTGGTCTACGGATATGATTCTCGCTTAGGGTGCGAGAGGTCCCGGGATCAAATCCCGGACGAGCCC [GAA G15C G18A T53A]	6.44	0.16	
GGCTCGTTGGTCTATTGGTATGATTCTCGCTTAGGGTGCGAGAGGTCCCGGGTTCTAATCCCGGACGAGCCC [TTA G15T]	5.88	0.57	
GGCTCGTTGGTCTAGAGATGTGATTCTCGCTTAGGGTGCGAGAGGTCCCGGGTTCTAATCCCGGACGAGCCC [ATA G18A A20G]	5.94	0.25	
GGCTCGTTTGTCTCGGGGTATGATTCTCGCTTAGGGTGCGAGAGGTCCCGGGTTCGTATCCCGGACGAGCCC [GGT G9T A14C]	3.67	0.2	
GGCTCGTTGGTCTGGCGGTATGATTCTCGCTTAGGGTGCGAGAGGTCCCGGGGTCAAATCCCGGACGAGCCC [CAA A14G T53G]	5.25	0.2	
GGCTCGTTGGTCTAGGGGTATGATTCTCGCTTAGGGTGCGAGAGGTCCCGGGTCCACATCCCGGACGAGCCC [GAC T54C]	1.89	0.07	0.67
GGCTCGTTGGTCTAGGGGGATGATTCTCGCTTAGGGTGCGAGAGGTCCCGGGTACAGATCCCGGACGAGCCC [GAG T19G T54A]	3.23	0.25	
GGCTCGTTGGTCTGGGAGTATGATTCTCGCTTAGGGTGCGAGAGGTCCCGGGTTCATATCCCGGACGAGCCC [GAT A14G G17A]	4.21	0.14	
GGCTCGTTGGTCTAGGGGCATGATTCTCGCTTAGGGTGCGAGAGGTCCCGGGTTGGAATCCCGGACGAGCCC [GGA T19C C55G]	2.85	0.25	
GGCTCGTTGGTCTAGCGGTATGATTCTCGCTTAGGGTGCGAGAGGTCCCGGGTTCTCATCCCGGACGAGCCC [CTC]	5.16	0.25	
GGCTCGTTGGTCTTGCGGTATGATTCTCGCTTAGGGTGCGAGAGGTCCCGGGTTTAAATCCCGGACGAGCCC [CAA A14T C55T]	2.8	0.4	
GGCTCGTTGGTCTAGCGGTATGATTCTCGCTTAGGGTGCGAGAGGTCCCGGGGTCTAATCCCGGACGAGCCC [CTA T53G]	3.44	0.2	
GGCTCGTTGGTCTCGGGGTATGATTCTCGCTTAGGGTGCGAGAGGTCCCGGGTTTGAATCCCGGACGAGCCC [GGA A14C C55T]	3.23	0.23	
GGCTCGTTGGTCTAGGGGCATGATTCTCGCTTAGGGTGCGAGAGGTCCCGGGTTCAAGACCCGGACGAGCCC [GAA T19C A58G T59A]	4.97	0.38	
GGCTCGTTGGTCTAGGGGGATGATTCTCGCTTAGGGTGCGAGAGGTCCCGGGTTCAATCCCCGGACGAGCCC [GAA T19G A58T T59C]	3.45	0.17	
GGCTCGTTAGTCTAGCGGTATGATTCTCGCTTAGGGTGCGAGAGGTCCCGGGTTCTAATCCCGGACGAGCCC [CTA G9A]	6.74	0.5	
